Library screening results

By UniProt entry, the sequences of proteins in these tests, tags left out.
UniProt E9BF75, entry or part of it: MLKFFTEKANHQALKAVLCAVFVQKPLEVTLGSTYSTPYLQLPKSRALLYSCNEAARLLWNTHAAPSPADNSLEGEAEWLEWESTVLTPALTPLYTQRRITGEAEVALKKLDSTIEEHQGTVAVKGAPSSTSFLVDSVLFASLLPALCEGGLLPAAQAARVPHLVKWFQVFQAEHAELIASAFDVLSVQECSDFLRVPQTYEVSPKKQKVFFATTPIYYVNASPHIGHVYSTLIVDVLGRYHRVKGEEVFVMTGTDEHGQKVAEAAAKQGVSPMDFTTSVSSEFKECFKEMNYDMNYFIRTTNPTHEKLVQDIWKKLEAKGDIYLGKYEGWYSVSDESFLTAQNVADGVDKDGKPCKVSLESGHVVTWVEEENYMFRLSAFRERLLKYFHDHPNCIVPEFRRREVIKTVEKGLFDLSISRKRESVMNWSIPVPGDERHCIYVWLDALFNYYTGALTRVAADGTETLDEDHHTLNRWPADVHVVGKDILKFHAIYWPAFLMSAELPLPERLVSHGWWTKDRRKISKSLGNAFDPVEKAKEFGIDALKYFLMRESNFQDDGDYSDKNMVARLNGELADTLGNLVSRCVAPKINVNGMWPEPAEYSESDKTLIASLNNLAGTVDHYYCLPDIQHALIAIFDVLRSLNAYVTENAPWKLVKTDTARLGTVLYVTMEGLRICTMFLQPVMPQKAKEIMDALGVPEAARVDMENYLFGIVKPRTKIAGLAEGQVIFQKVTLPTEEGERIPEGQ

LdMetRS: 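Primary screen of methionyl-tRNA synthetase; the read-out is not stated. Target: Methionyl-tRNA synthetase (putative), Leishmania donovani (UniProt E9BF75). The test concentration is not given. Values are per cent inhibition. About 68,000 compounds were tested under these conditions; 0.035% (about 24) showed 50% or more at least once.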
Mtb heat-shock: 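Assay on Mycobacterium tuberculosis, filed only as a heat shock assay from Cornell; the read-out is not stated. The concentration is filed as 10 mM, unlikely as a test dose, so the dose is not known. The record gives no direction; compounds that gave an IC50 in retests scored well above the rest, so higher reads as stronger inhibition. Size under these conditions: about 69,000 compounds, about 930 of them at 50% or above in at least one test.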

Results are percentages, as filed. The record does not define 0% and 100%; most values in the screen are far below 50% and negative numbers occur (in some assays of this library far below -100). Compounds were drawn at random from those tested, without regard to their results. A dash means the value is not listed here; it may have been measured.

compound	LdMetRS	Mtb heat-shock
CN1CC2(CCCN(Cc3ccc(Oc4ccccc4)cc3)C2)OC1=O (stereo not shown)	14.04%	-6.625%
CSCc1nc(CNC(=O)C2CCCN(C(=O)N(C)C)C2)cs1 (stereo not shown)	2.978%	19.76%
CN1CC(c2ccccc2)CC12CCN(C(=O)c1c(Cl)cnn1C)CC2 (stereo not shown)	11.11%	3.624%
CS(=O)(=O)C1(C(=O)NC2CCc3nccn3C2)CCCC1 (stereo not shown)	10.08%	-25.64%
CCC(CC)c1cc(C(=O)N2CCN(C(C#N)C(C)C)CC2)on1 (stereo not shown)	1.95%	-8.387%
Cc1cc(NC(=O)C2CCCN(C(=O)NCC(C)C)C2)ccn1 (stereo not shown)	16.53%	-5.675%
O=S(=O)(C1CC1)N1CC[C@]2(C[C@@H](OCC3CCOCC3)CO2)C1	6.569%	3.916%
Cc1ccc(CC(=O)N2CCC(Nc3ccc(C)nn3)CC2)cn1	25.64%	-14.06%
Cc1noc(CN(C)c2ccccc2)n1	8.815%	-14.6%
CC1CN(C)CCN1C(=O)c1ccn(-c2cccc(F)c2)n1 (stereo not shown)	17.95%	-10.78%
O=C(c1nc(N2CCCC2)ncc1Cl)N1CCN(Cc2ccsc2)CC1	9.059%	-21.21%
O=c1[nH]c(C2CCOC2)nc2ccc(Cl)cc12 (stereo not shown)	7.186%	-7.724%
Fc1ccccc1-c1nc(CNCCn2cccn2)cs1	27.93%	20.44%
Cn1cc(C[C@H]2[C@H](O)CCN2Cc2ccc(F)cc2)cn1	5.473%	-
CC1(C)Oc2ccc(S(=O)(=O)NCCCn3ccnc3)cc2NC1=O	3.723%	-5.33%
CC1(C)CN(CC(F)(F)F)CCN1CC(=O)NC1CCCC1	7.56%	0.7731%
CCCn1c(C)c(CC(=O)NC)c2c1CC(C)(C)CC2=O	12.6%	17.3%
CN(CCc1ccccn1)C(=O)Nc1cc(C(F)(F)F)c[nH]c1=O	6.534%	3.636%
Cn1cnc(S(=O)(=O)N2CCCn3cnc(CN4CCCC4)c3C2)c1	6.667%	-20.73%
COc1ccc(CNCC2CN(C3CC3)CCO2)cc1C (stereo not shown)	4.91%	17.79%
O=C(O)C(F)(F)F.[H][C@@]12COC[C@]1(COc1cccnc1)CN(C(=O)COc1ccccc1)C2	-	12.4%
Cc1ccccc1CCNC(=O)C1CC(=O)N(CC(F)(F)F)C1 (stereo not shown)	1.307%	-15.86%
NC(=O)c1cc2c(nc1-c1ccc3c(c1)CCO3)CCC2	12.06%	0.5844%
CCc1noc(CN(C)C(=O)C(C)(C)Oc2cccc(Cl)c2)n1	-2.557%	-1.826%
O=C(N[C@@H]1CCNC[C@H]1O)c1ccc(F)c(F)c1	3.133%	13.03%
CNc1cc(C)nc(C2COCCN2CCOc2ccc(F)cc2)n1 (stereo not shown)	17.08%	3.789%
CCc1c(C)sc2ncnc(N3CC[C@@H](N4CCC(O)CC4)[C@H](O)C3)c12	18.09%	10.29%
Cc1cc(C)n(CC2CCCN2CCC(=O)Nc2cc(C)on2)n1 (stereo not shown)	23.93%	-8.628%
c1ccc(OCCN2CCC(c3cnccn3)CC2)cc1	6.231%	-4.156%
CNc1cc(C2CN(C(=O)c3ccn(C)n3)CCO2)nc(C)n1 (stereo not shown)	3.723%	-8.177%
CC1CC(=O)c2cnc3nc(N4CCOCC4)[nH]c(=O)c3c2C1 (stereo not shown)	16.62%	-0.8439%
CNc1cc2c(nn1)CCN(C(=O)c1ccoc1)C2	15.28%	5.68%
CCOc1ncccc1NC(=O)NCC(O)c1ccccc1OC (stereo not shown)	7.981%	9.319%
CCn1cc(CN(C)S(=O)(=O)c2cnn(C)c2)cn1	23.37%	-4.84%
Cc1ccc(CNC(=O)CCSCc2csc(C)n2)cn1	5.164%	1.817%
Fc1cccc(-c2n[nH]cc2-c2nc(CN3CCOCC3)no2)c1	1.52%	-0.4328%
CN1C[C@H](O)C[C@H]1c1nc(-c2ccc(OC(F)(F)F)cc2)no1	9.89%	-7.267%
O=C(O)C1CCN(c2nc3c(-c4ccccc4F)csc3c(=O)[nH]2)CC1	8.633%	27.51%
COCC(=O)NCC1Cn2nnc(-c3ccoc3)c2CO1 (stereo not shown)	9.058%	9.311%
CN1[C@@H](C(=O)NCC2CC2)C[C@@H]2CN(Cc3ccoc3)C[C@@H]21	2.885%	-
Cc1cc(C)n(CC(=O)N2CCCCC2CCN(C)C)c(=O)n1 (stereo not shown)	9.456%	-4.084%
O=C(COC1CCCCC1)Nc1ccn(Cc2cccnc2)n1	12.53%	-20.64%

Once more, the final 4:

- COCC(=O)NCC1Cn2nnc(-c3ccoc3)c2CO1 (stereo not shown) : LdMetRS: 9.058%; Mtb heat-shock: 9.311%
- CN1[C@@H](C(=O)NCC2CC2)C[C@@H]2CN(Cc3ccoc3)C[C@@H]21 : LdMetRS: 2.885%
- Cc1cc(C)n(CC(=O)N2CCCCC2CCN(C)C)c(=O)n1 (stereo not shown) : LdMetRS: 9.456%; Mtb heat-shock: -4.084%
- O=C(COC1CCCCC1)Nc1ccn(Cc2cccnc2)n1 : LdMetRS: 12.53%; Mtb heat-shock: -20.64%

Data taken from ChEMBL document CHEMBL3988442, “University of Dundee, Small-Polar-MMV Screening Library” (2021).